Assay results as given in PubChem BioAssay AID1347075 (National Center for Advancing Translational Sciences (NCATS), 2019).
About 5,500 (1.4%) of roughly 400,000 compounds were called active. Inconclusive results, whose numbers are uncertain, are shown with a selection of clear calls. The call rests on the fitted dose curve; in most records, active means well fitted cell-killing curve with a large enough effect; inconclusive means small, poorly fitted or top-dose-only effect, or effect the other way; inactive means flat fitted curve, though single readings scatter. Potencies of inconclusive entries are doubtful fits and often do not repeat.

Experiment: qHTS assay for MDR1-selective chemotherapeutics: Primary screen using the parental adenocarcinoma cell KB-3-1; further: nearly all actives have a fitted effect of over 60% in size
Details: KB-3-1 viability, CellTiter-Glo ATP luminescence, 72 h; activity change, negative = cytotoxic: at 46.1 µM (top of the series)
How it was run: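 Using CellTiter-Glo luminescence, growth of non-resistant KB-3-1 adenocarcinoma cells is assessed 72 h after pin-tool compound addition at 37 °C. Normalized responses across the concentration series yield fitted curves.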
On the % scale 0 is the no-effect control and ±100 the full control effect; potency means the concentration at half of the fitted maximal effect.

With `O=C(c1ccc2ccccc2n1)N1CCN(Cc2c(F)cccc2Cl)CC1` as the compound, how does the “activity change, negative = cytotoxic” value read?
Its value is inactive: -3.81%.

Which Potency does the source give for `O=S(=O)(Cc1ccccc1)c1cnc2ccccc2n1` here?
The Potency was inconclusive: 18.4 µM [cytotoxic, single point].

With `Cc1ccc(OCC(=O)NC(=S)Nc2cccc(NC(=O)c3ccc(Cl)cc3Cl)c2)cc1` as the compound, how does the “activity change, negative = cytotoxic” value read?
Its value is inactive: 3.36%.

For `Cc1cc(N2CCN(S(=O)(=O)c3ccc(Cl)cc3)CC2)c2ccccc2n1`, which Potency is on record?
The Potency was inconclusive: 23.1 µM [cytotoxic, single point].

With `CS(=O)(=O)N1N=C(c2cccs2)CC1c1ccc(Cl)o1` (stereo unspecified) as the compound, how does the “activity change, negative = cytotoxic” value read?
The value was inactive: 3.22%.

Which Potency does the source give for `Cc1cccc(NC(=O)c2onc3c2CCCC3)n1` here?
Its Potency is inconclusive: 20.6 µM [cytotoxic, partial curve, poor fit].

For `Cc1ccc(NC2=C/C(=N/S(=O)(=O)c3cccs3)c3ccccc3C2=O)cc1`, which Potency is on record?
The Potency was active: 2.31 µM.

With `Cc1csc(NC(=S)Nc2cccc(Cl)c2)n1` as the compound, how does the Potency read?
The Potency was active: 20.6 µM.

With `O=C(OCC12CC3CC(CC(C3)C1)C2)c1ccc(NCc2cc(O)ccc2O)cc1` as the compound, how does the Potency read?
Its Potency is inconclusive: 25.9 µM [cytotoxic, single point].

For `Cc1nc2ccc(Br)cn2c1C(=O)N/N=C\c1ccc(C(C)C)cc1`, which Potency is on record?
The Potency was inconclusive: 29.1 µM [cytotoxic, single point].

Which Potency does the source give for `Clc1ccc(CSc2snnc2-c2ccccc2)cc1` here?
Its Potency is inconclusive: 13 µM [cytotoxic, partial curve, poor fit].

For `CC(C)(C)C(=O)/C(=C/c1ccncc1)n1cncn1`, which Potency is on record?
The Potency was active: 6.51 µM.

For `Cc1cc(C)c2nc(SC(C)C#N)cc(C)c2c1` (stereo unspecified), which Potency is on record?
The Potency was inconclusive: 23.1 µM [cytotoxic, single point].

For `C/C(=N/NC(=O)c1cccs1)c1ccc(N2CCOCC2)cc1`, which “activity change, negative = cytotoxic” value is on record?
Its value is inactive: -4.09%.

With `COc1ccc(N2CCN(C(=O)CCc3ccc(S(=O)(=O)NC(C)(C)C)cc3)CC2)cc1` as the compound, how does the Potency read?
Its Potency is inconclusive: 20.6 µM [cytotoxic, single point].

Which Potency does the source give for `S=C(Nc1ccc(Cl)cc1)NC1CC2CCC(C1)N2Cc1ccccc1` (stereo unspecified) here?
The Potency was inconclusive: 18.4 µM [cytotoxic, partial curve, poor fit].

For `COc1cc(CNCc2ccccn2)ccc1OCc1ccc(Cl)cc1Cl`, which Potency is on record?
The Potency was inconclusive: 29.1 µM [cytotoxic, single point].

Which “activity change, negative = cytotoxic” value does the source give for `Cc1cc(C)n2c(Nc3ccc(C(C)C)cc3)c(-c3ccsc3)nc2n1` here?
Its value is inactive: -1.64%.

For `CC1(C(=O)NCc2ccco2)Cc2c(-c3cccc(C(N)=O)c3)ccnc2O1` (stereo unspecified), which Potency is on record?
Its Potency is active: 10.3 µM.

Which Potency does the source give for `COc1cc(C(=O)O/N=C(\N)Cc2ccc([N+](=O)[O-])cc2)cc(OC)c1OC` here?
The Potency was inconclusive: 14.6 µM [cytotoxic, partial curve].

For `Cn1c(=O)c2cc(NC(=O)CCc3cccnc3)ccc2n1Cc1cccc(C(F)(F)F)c1`, which Potency is on record?
The Potency was inconclusive: 20.6 µM [cytotoxic, single point].

For `O=C(Nc1ccc2c(c1)OCCO2)c1cnc2ccccn2c1=O`, which “activity change, negative = cytotoxic” value is on record?
The value was inactive: 1.61%.

With `CCOC(=O)CNC(=O)CSc1ncnc2c1cnn2Cc1ccccc1` as the compound, how does the Potency read?
The Potency was inconclusive: 20.6 µM [cytotoxic, single point].

For `Cn1nnnc1Sc1ncnc2scc(-c3cc4ccccc4o3)c12`, which Potency is on record?
Its Potency is inconclusive: 6.51 µM [cytotoxic, full curve, poor fit].

For `Cc1cccc(Cn2c(Sc3nc(C)cs3)nc3c2c(=O)[nH]c(=O)n3C)c1`, which “activity change, negative = cytotoxic” value is on record?
Its value is inactive: -27.6%.

For `Cc1cc(C(=O)N/N=C2\CC(=O)CC(C)(C)C2)c(C)n1-c1ccccc1`, which “activity change, negative = cytotoxic” value is on record?
The value was inactive: -0.0599%.

For `C/C=C(/CCC1NCCc2c1[nH]c1ccccc21)[Si](C)(C)C` (stereo unspecified), which Potency is on record?
The Potency was active: 18.4 µM.

With `COCCNC(=S)N/N=C(\C)c1ccc2cc(OC)ccc2c1` as the compound, how does the Potency read?
Its Potency is inconclusive: 20.6 µM [cytotoxic, single point].

With `O=C(NCCO)c1c(O)c2cccc3c2n(c1=O)CC3` as the compound, how does the Potency read?
Its Potency is inconclusive: 16.4 µM [cytotoxic, partial curve].

For `COc1ccc(/C=C/C(=O)c2c(C)nc3ccccn23)cc1`, which “activity change, negative = cytotoxic” value is on record?
The value was inactive: -2.99%.

With `COc1ccc(OC)c(S(=O)(=O)NCCCN2CCCC2=O)c1` as the compound, how does the “activity change, negative = cytotoxic” value read?
The value was inactive: 7.14%.

With `COc1ccc2nc(N3CCCCC3)c(C#N)cc2c1` as the compound, how does the “activity change, negative = cytotoxic” value read?
Its value is inactive: -16.1%.

With `Cc1ccc2[nH]c(=O)c(CN(CCO)Cc3nnnn3Cc3ccco3)cc2c1` as the compound, how does the Potency read?
The Potency was inconclusive: 18.4 µM [rising, partial curve, poor fit].

With `CC(=O)C(Cc1ccccc1)(Cc1ccccc1)C(C)=O` as the compound, how does the Potency read?
The Potency was inconclusive: 32.6 µM [rising, partial curve, poor fit].

For `Cc1ccc(CNc2oc(-c3ccc(COc4ccc(C)cc4)o3)nc2C#N)cc1`, which “activity change, negative = cytotoxic” value is on record?
The value was inactive: -17.8%.

For `O=C(NCc1cccnc1)NC1(C(F)(F)F)Oc2ccccc2O1`, which Potency is on record?
The Potency was inconclusive: 10.3 µM [cytotoxic, partial curve, poor fit].

With `CCn1c(SCC(=O)NNC(=O)c2ccc(C)cc2)nnc1C1CC1` as the compound, how does the Potency read?
The Potency was inconclusive: 29.1 µM [rising, single point].

With `CC(C)C[C@@H](CN1CCCC1CN1C(=S)NC[C@@H]1Cc1ccc(O)cc1)N1C[C@H](Cc2ccccc2)N(CCc2ccccc2)C1=S` (stereo partly specified) as the compound, how does the Potency read?
Its Potency is inconclusive: 23.1 µM [cytotoxic, single point].

For `CC(=O)CSc1ncnc2nc[nH]c12`, which “activity change, negative = cytotoxic” value is on record?
Its value is inactive: 3.38%.

With `NC(=O)NN=C1C2CCCC1C(c1ccccc1)NC2c1ccccc1` (stereo unspecified) as the compound, how does the “activity change, negative = cytotoxic” value read?
The value was inactive: -25.5%.

With `CCOC(=O)c1ccc(NC(=O)c2nc[nH]c2C(=O)NCC(=O)OC(C)(C)C)cc1` as the compound, how does the Potency read?
The Potency was inconclusive: 16.4 µM [cytotoxic, single point].

With `Cc1ccccc1NCC(=O)N/N=C/c1c(C)c(C(=O)c2ccc(Cl)cc2)n2ccccc12` as the compound, how does the Potency read?
The Potency was inconclusive: 29.1 µM [cytotoxic, single point].

For `CSc1ccc(/C=N/NC(=O)c2ccccc2Cl)cc1`, which Potency is on record?
The Potency was inconclusive: 29.1 µM [cytotoxic, single point].

With `Cc1nn(Cc2ccccc2)c(C)c1NC(=O)c1noc2c1CCc1ccccc1-2` as the compound, how does the Potency read?
Its Potency is inconclusive: 29.1 µM [cytotoxic, single point].

For `N/C(=N\OC(=O)c1ccccc1)c1ccn[nH]1`, which “activity change, negative = cytotoxic” value is on record?
The value was inactive: 1.17%.

For `COc1ccc(C(=O)Oc2ccc(/C=N/Nc3ccc(Cl)c(C(=O)O)c3)cc2OC)cc1`, which Potency is on record?
Its Potency is inconclusive: 0.58 µM [rising, full curve].

With `COc1cc(O)oc1C=Nc1ccc(Cl)cc1` as the compound, how does the “activity change, negative = cytotoxic” value read?
Its value is inactive: 1.24%.

For `COc1cc(OC)c(-c2nn3c(-c4ccco4)nnc3s2)cc1OC`, which Potency is on record?
The Potency was inconclusive: 10.3 µM [rising, partial curve, poor fit].

Which Potency does the source give for `COCCNC(=O)C1(C)Cc2c(-c3ccc4c(c3)OCO4)ccnc2O1` (stereo unspecified) here?
The Potency was inconclusive: 20.6 µM [cytotoxic, single point].

For `CCOC(=O)c1c(C)[n+](-c2ccc(C)cc2)c(CC)c2cc(OC)c(OC)cc12`, which Potency is on record?
Its Potency is inconclusive: 23.1 µM [cytotoxic, single point].

Which Potency does the source give for `COc1ccc(Nc2nc(-c3cccs3)nc3ccccc23)c(OC)c1` here?
The Potency was inconclusive: 11.6 µM [rising, partial curve, poor fit].

With `CSc1cnc2c(=O)[nH]c(=O)n(C)c2n1` as the compound, how does the activity change, negative = cytotoxic read?
The activity change, negative = cytotoxic was inconclusive: 32.8%.

For `Cc1nn(C)c(C)c1CCC(=O)N1CCCC(C(=O)c2cccc(OC(C)C)c2)C1` (stereo unspecified), which Potency is on record?
Its Potency is inconclusive: 1.64 µM [cytotoxic, full curve, poor fit].

Which “activity change, negative = cytotoxic” value does the source give for `Cc1cccc(C(=O)NCC(c2cccs2)N2CCOCC2)c1` (stereo unspecified) here?
The value was inactive: 3.73%.

For `CCCCCCCc1c(O)nc(SCCN(C)C)[nH]c1=O`, which Potency is on record?
The Potency was inconclusive: 25.9 µM [rising, single point].

For `O=C(CCC(=O)N1CCN(c2ccc(Cl)c(Cl)c2)CC1)c1ccccc1`, which Potency is on record?
Its Potency is inconclusive: 20.6 µM [cytotoxic, partial curve, poor fit].

For `CC(C)CNc1nnnc2c1sc1nc(N3CCOCC3)c3c(c12)CC(C)(C)SC3`, which Potency is on record?
Its Potency is inconclusive: 29.1 µM [cytotoxic, single point].

For `CC(C)c1ccc(S(=O)(=O)Nc2ccc3oc4c(c3c2)C(=O)CC(C)(C)C4)cc1`, which Potency is on record?
The Potency was inconclusive: 23.1 µM [cytotoxic, single point].

For `COc1cc(C(=O)N2CCN(c3ccccc3)CC2)c2ccccc2n1`, which Potency is on record?
The Potency was active: 0.58 µM.

Which Potency does the source give for `CCOC(=O)Cn1c(=O)n(C2CCCCC2)c2nc(-c3ccc(Cl)cc3)nc(C(N)=O)c21` here?
The Potency was inconclusive: 3.26 µM [cytotoxic, full curve].

With `COc1ccc(NC(=O)c2ccc(-c3csc(C)n3)cc2)cc1` as the compound, how does the Potency read?
Its Potency is inconclusive: 0.651 µM [cytotoxic, full curve].

With `CC(=O)Nc1ccc(S(=O)(=O)N2CCC(Oc3ccc(-n4cnnn4)cc3)CC2)cc1` as the compound, how does the Potency read?
The Potency was inconclusive: 29.1 µM [cytotoxic, single point].

With `COc1ccc(-c2c3c(=O)n(C)c(=O)n(C)c3cn2Cc2ccccn2)cc1` as the compound, how does the “activity change, negative = cytotoxic” value read?
Its value is inactive: 1.44%.

With `N#C/C(=C/c1ccc(F)cc1)c1nc(CCN2C(=O)c3ccccc3C2=O)cs1` as the compound, how does the “activity change, negative = cytotoxic” value read?
The value was inactive: 6.92%.

For `COc1ccccc1/C=N/NC(=O)c1cc2c(OC)c(OC)ccc2[nH]1`, which Potency is on record?
The Potency was inconclusive: 16.4 µM [cytotoxic, partial curve].

For `CCOC(=O)c1cnc(SCC(=O)Nc2ccccc2C(=O)OC)nc1N`, which Potency is on record?
The Potency was inconclusive: 18.4 µM [cytotoxic, single point].

Which Potency does the source give for `Cc1ccc(-c2nc3cc(Cl)ccc3o2)cc1NC(=O)COc1ccccc1C` here?
Its Potency is inconclusive: 23.1 µM [rising, single point].

With `CCCCN(C(=O)CSCC(=O)Nc1ccc(C)cc1)c1c(N)n(CC(C)C)c(=O)[nH]c1=O` as the compound, how does the “activity change, negative = cytotoxic” value read?
Its value is inactive: 28.6%.

With `Cc1ccccc1Nc1c(-c2ccc(N3CCOCC3)cc2)nc2ncccn12` as the compound, how does the activity change, negative = cytotoxic read?
Its activity change, negative = cytotoxic is inconclusive: 11.1%.

For `Cc1ccc(C)c(Nc2ccc(C(=O)NCCc3ccccc3)cn2)c1`, which “activity change, negative = cytotoxic” value is on record?
Its value is inactive: -2.66%.

Which Potency does the source give for `COCC1CCN(C(=O)c2ccc3oc(CCc4ccccc4)nc3c2)C1` (stereo unspecified) here?
Its Potency is inconclusive: 9.2 µM [cytotoxic, partial curve, poor fit].
